No constants are given. Whether binding was seen depends on the method and setting. In cells and extracts the contact can be indirect. Some entries that bind do so weakly or less than the wild type. Where a sequence is shown, tags or fusion partners need not be part of it.
Target: T1, GST-Tap (1–619) (UniProt Q9UBU9)
T1 sequence: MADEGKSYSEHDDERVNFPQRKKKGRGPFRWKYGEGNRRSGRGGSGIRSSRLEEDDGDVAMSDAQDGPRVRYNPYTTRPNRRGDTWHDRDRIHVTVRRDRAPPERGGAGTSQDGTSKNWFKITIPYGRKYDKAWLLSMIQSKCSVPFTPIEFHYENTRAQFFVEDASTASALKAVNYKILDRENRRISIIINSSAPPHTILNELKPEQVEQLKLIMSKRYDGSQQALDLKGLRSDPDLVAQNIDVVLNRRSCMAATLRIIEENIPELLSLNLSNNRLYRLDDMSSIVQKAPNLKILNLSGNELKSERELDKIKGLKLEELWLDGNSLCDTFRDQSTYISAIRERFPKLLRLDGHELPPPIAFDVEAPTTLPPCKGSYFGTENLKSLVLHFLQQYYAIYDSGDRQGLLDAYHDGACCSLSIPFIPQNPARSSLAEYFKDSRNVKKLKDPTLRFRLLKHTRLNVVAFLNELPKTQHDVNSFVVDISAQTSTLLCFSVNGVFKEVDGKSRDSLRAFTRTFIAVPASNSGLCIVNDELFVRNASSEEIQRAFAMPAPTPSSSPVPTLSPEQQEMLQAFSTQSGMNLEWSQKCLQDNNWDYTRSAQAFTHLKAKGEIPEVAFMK
Experiment: pull-down; 50 µl E. coli lysate with GST-fusion protein mixed with 50 µl glutathione agarose bead slurry and 2 µl [35S]-labelled in vitro translated protein; 4°C, 1 h; lysis buffer 20 mM Tris-HCl pH 8.0/200 mM NaCl/1 mM EDTA/0.5% NP40; 4 washes; SDS-PAGE and Phosphorimager

By UniProt entry, the sequences of proteins in these tests, tags left out. Where a name states a change or a piece, a line headed by the entry shows the natural chain unless it says otherwise. Residues count along the entry.
in vitro translated hnRNP A1 deletion protein 1–234 (P09651, residues 1-234): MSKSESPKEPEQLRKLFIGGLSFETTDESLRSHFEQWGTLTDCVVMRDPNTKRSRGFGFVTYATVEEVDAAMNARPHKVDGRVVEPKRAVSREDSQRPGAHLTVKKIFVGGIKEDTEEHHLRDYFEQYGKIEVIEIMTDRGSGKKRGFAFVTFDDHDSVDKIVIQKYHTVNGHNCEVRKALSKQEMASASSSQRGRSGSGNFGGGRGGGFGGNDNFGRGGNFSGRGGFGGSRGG
in vitro translated hnRNP A1 deletion protein 1–194 (P09651, residues 1-194): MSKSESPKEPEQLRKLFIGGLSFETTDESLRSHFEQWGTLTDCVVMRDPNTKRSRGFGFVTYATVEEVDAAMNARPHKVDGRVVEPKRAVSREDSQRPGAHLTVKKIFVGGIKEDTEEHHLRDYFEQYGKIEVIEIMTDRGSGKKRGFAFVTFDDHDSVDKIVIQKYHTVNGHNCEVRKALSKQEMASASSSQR

binding | Substance
binds | in vitro translated hnRNP A1 deletion protein 1–234 (from UniProt P09651-2 1-234) (domain or fragment)
no binding | in vitro translated hnRNP A1 deletion protein 1–194 (from UniProt P09651-2 1-194) (domain or fragment)

From paper PMC3485056
